# According to the supplement of paper PMC8728848:
# This is one part of the list.
# B1: PX14343G-pdi-535-24-535 (Parabacteroides distasonis) (protein)
# chain: LDTVPKDQLAPSTTWQTEADAKGFIVGCYKDLLDGNTLLYLDCGSDIGYNNFPWEGFRPWGDGSLSSSNPGQILYDYKSIRKANTFLENVDKVTFSSDAVKANYVAQAKAIRAYKYFLMNWWYGGVPIISSYSSADEAKVERNTEQEVRDYIAKDLDEALAGIAEAPEARGYIAKGAVLAIKMREALYYGDWQKAKDAAKAIIDLKQYELDPDYTNLFKVSGVDSKEIILADQNIETLDGLGTIGQMYNNVDQGWSSIVPTQNLVDMYEMSDGLTKEESKTYDAKHPFANRDPRMAMTILYPGRDWRGDVLNTLDEKLQDGTVNKNFPTYTDNASKSALTWAKYLDPMDQYGDVWSSGACPIVFRYAEVLLTYAEAANELSGPSDEIYGYLNQIRQRVGMGEVDKAKYGTKDKLRELIRRERTVELAGEGLRRADIVRWQEDGKMLAEKVMNGDLLRVTGTINYGESEPTKRAEITGTAVIETRQFSSRNRYLPIPQTSMDKNPNLKQNPGY
# Key:
# Assay in all cases: glycan array binding signal (z-score within array); higher = stronger binding
# Settings in all cases: glycan notation: IUPAC condensed, linker removed
# [1] = target: Neu5Ac(a2-3)Gal(b1-4)GlcNAc(b1-3)Gal(b1-4)GlcNAc(b1-3)Gal(b1-4)GlcNAc
# Method in brief: (§1)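 Columns mapping to the same glycan were averaged after glycan names were converted to IUPAC-condensed notation. The data come from 3228 arrays in the Consortium for Functional Glycomics database, limited to those with an available protein sequence. Binding is reported as a within-array Z-score averaged across arrays of one protein sequence and across linkers.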
# [2] = target: Neu5Ac(a2-3)Gal(b1-4)GlcNAc(b1-3)Gal(b1-4)GlcNAc(b1-3)Gal(b1-4)GlcNAc(b1-2)Man(a1-3)[Neu5Ac(a2-3)Gal(b1-4)GlcNAc(b1-3)Gal(b1-4)GlcNAc(b1-3)Gal(b1-4)GlcNAc(b1-2)Man(a1-6)]GalNAc
# Method in brief: as §1
# [3] = target: Neu5Ac(a2-3)Gal(b1-4)GlcNAc(b1-3)Gal(b1-4)GlcNAc(b1-3)GalNAc
# Method in brief: as §1
# [4] = target: Neu5Ac(a2-3)Gal(b1-4)GlcNAc(b1-3)Gal(b1-4)GlcNAc(b1-3)[Neu5Ac(a2-3)Gal(b1-4)GlcNAc(b1-3)Gal(b1-4)GlcNAc(b1-6)]GalNAc
# Method in brief: as §1
# [5] = target: Neu5Ac(a2-3)Gal(b1-4)GlcNAc(b1-3)Gal(b1-4)GlcNAc(b1-6)[Gal(b1-3)]GalNAc
# Method in brief: as §1
# [6] = target: Neu5Ac(a2-3)Gal(b1-4)GlcNAc(b1-3)Gal(b1-4)[Fuc(a1-3)]GlcNAc
# Method in brief: as §1
# [7] = target: Neu5Ac(a2-3)Gal(b1-4)GlcNAc(b1-3)GalNAc
# Method in brief: as §1
# [8] = target: Neu5Ac(a2-3)Gal(b1-4)GlcNAc(b1-3)[Neu5Ac(a2-3)Gal(b1-4)GlcNAc(b1-6)]GalNAc
# Method in brief: as §1
# [9] = target: Neu5Ac(a2-3)Gal(b1-4)GlcNAc(b1-6)GalNAc
# Method in brief: as §1
# [10] = target: Neu5Ac(a2-3)Gal(b1-4)GlcNAc(b1-6)[Gal(b1-3)]GalNAc
# Method in brief: as §1
# [11] = target: Neu5Ac(a2-3)Gal(b1-4)GlcNAc(b1-6)[Neu5Ac(a2-3)Gal(b1-3)]GalNAc
# Method in brief: as §1
# [12] = target: Neu5Ac(a2-3)Gal(b1-4)GlcNAc6S
# Method in brief: as §1
# [13] = target: Neu5Ac(a2-3)Gal(b1-4)[Fuc(a1-3)]GlcNAc
# Method in brief: as §1
# [14] = target: Neu5Ac(a2-3)Gal(b1-4)[Fuc(a1-3)]GlcNAc(b1-2)Man
# Method in brief: as §1
# [15] = target: Neu5Ac(a2-3)Gal(b1-4)[Fuc(a1-3)]GlcNAc(b1-3)Gal
# Method in brief: as §1
# [16] = target: Neu5Ac(a2-3)Gal(b1-4)[Fuc(a1-3)]GlcNAc(b1-3)Gal(b1-4)GlcNAc
# Method in brief: as §1
# [17] = target: Neu5Ac(a2-3)Gal(b1-4)[Fuc(a1-3)]GlcNAc(b1-3)Gal(b1-4)[Fuc(a1-3)]GlcNAc(b1-3)Gal(b1-4)[Fuc(a1-3)]GlcNAc
# Method in brief: as §1
# [18] = target: Neu5Ac(a2-3)Gal(b1-4)[Fuc(a1-3)]GlcNAc(b1-3)GalNAc
# Method in brief: as §1
# [19] = target: Neu5Ac(a2-3)Gal(b1-4)[Fuc(a1-3)]GlcNAc(b1-6)[Gal(b1-3)]GalNAc
# Method in brief: as §1
# [20] = target: Neu5Ac(a2-3)Gal(b1-4)[Fuc(a1-3)]GlcNAc(b1-6)[Neu5Ac(a2-3)Gal(b1-3)]GalNAc
# Method in brief: as §1
# [21] = target: Neu5Ac(a2-3)Gal(b1-4)[Fuc(a1-3)]GlcNAc6S
# Method in brief: as §1
# [22] = target: Neu5Ac(a2-3)Gal6S(b1-4)GlcNAc
# Method in brief: as §1
# [23] = target: Neu5Ac(a2-3)Gal6S(b1-4)[Fuc(a1-3)]GlcNAc
# Method in brief: as §1
# [24] = target: Neu5Ac(a2-3)GalNAc
# Method in brief: as §1
# [25] = target: Neu5Ac(a2-3)GalNAc(b1-4)GlcNAc
# Method in brief: as §1
# [26] = target: Neu5Ac(a2-3)[GalNAc(b1-4)]Gal(b1-4)Glc
# Method in brief: as §1
# [27] = target: Neu5Ac(a2-3)[GalNAc(b1-4)]Gal(b1-4)GlcNAc
# Method in brief: as §1
# [28] = target: Neu5Ac(a2-3)[GalNAc(b1-4)]Gal(b1-4)GlcNAc(b1-3)GalNAc
# Method in brief: as §1
# [29] = target: Neu5Ac(a2-3)[Neu5Ac(a2-6)]GalNAc
# Method in brief: as §1
# [30] = target: Neu5Ac(a2-6)Gal
# Method in brief: as §1
# [31] = target: Neu5Ac(a2-6)Gal(b1-3)GlcNAc(b1-3)[Gal(b1-4)GlcNAc(b1-6)]Gal(b1-4)Glc
# Method in brief: as §1
# [32] = target: Neu5Ac(a2-6)Gal(b1-4)Glc
# Method in brief: as §1
# [33] = target: Neu5Ac(a2-6)Gal(b1-4)GlcNAc
# Method in brief: as §1
# [34] = target: Neu5Ac(a2-6)Gal(b1-4)GlcNAc(b1-2)Man
# Method in brief: as §1
# [35] = target: Neu5Ac(a2-6)Gal(b1-4)GlcNAc(b1-2)Man(a1-3)Man(b1-4)GlcNAc(b1-4)GlcNAc
# Method in brief: as §1
# [36] = target: Neu5Ac(a2-6)Gal(b1-4)GlcNAc(b1-2)Man(a1-3)[Gal(b1-4)GlcNAc(b1-2)Man(a1-6)]Man(b1-4)GlcNAc(b1-4)GlcNAc
# Method in brief: as §1
# [37] = target: Neu5Ac(a2-6)Gal(b1-4)GlcNAc(b1-2)Man(a1-3)[GlcNAc(b1-2)Man(a1-6)]Man(b1-4)GlcNAc(b1-4)GlcNAc
# Method in brief: as §1
# [38] = target: Neu5Ac(a2-6)Gal(b1-4)GlcNAc(b1-2)Man(a1-3)[GlcNAc(b1-4)][Neu5Ac(a2-6)Gal(b1-4)GlcNAc(b1-2)Man(a1-6)]Man(b1-4)GlcNAc(b1-4)GlcNAc
# Method in brief: as §1
binder,measurement,setting,value
B1,glycan array binding signal (z-score),[1],-0.9
same,glycan array binding signal (z-score),[2],2
same,glycan array binding signal (z-score),[3],-0.099
same,glycan array binding signal (z-score),[4],0.711
same,glycan array binding signal (z-score),[5],1.55
same,glycan array binding signal (z-score),[6],-0.487
same,glycan array binding signal (z-score),[7],-0.39
same,glycan array binding signal (z-score),[8],0.038
same,glycan array binding signal (z-score),[9],-0.627
same,glycan array binding signal (z-score),[10],0.323
same,glycan array binding signal (z-score),[11],-0.381
same,glycan array binding signal (z-score),[12],-0.289
same,glycan array binding signal (z-score),[13],-0.975
same,glycan array binding signal (z-score),[14],-1.02
same,glycan array binding signal (z-score),[15],-0.539
same,glycan array binding signal (z-score),[16],0.199
same,glycan array binding signal (z-score),[17],0.205
same,glycan array binding signal (z-score),[18],0.588
same,glycan array binding signal (z-score),[19],0.282
same,glycan array binding signal (z-score),[20],1.44
same,glycan array binding signal (z-score),[21],-0.736
same,glycan array binding signal (z-score),[22],-1.29
same,glycan array binding signal (z-score),[23],-1.06
same,glycan array binding signal (z-score),[24],-0.944
same,glycan array binding signal (z-score),[25],-0.998
same,glycan array binding signal (z-score),[26],-0.473
same,glycan array binding signal (z-score),[27],0.297
same,glycan array binding signal (z-score),[28],-0.823
same,glycan array binding signal (z-score),[29],-0.178
same,glycan array binding signal (z-score),[30],1.09
same,glycan array binding signal (z-score),[31],-0.502
same,glycan array binding signal (z-score),[32],-0.218
same,glycan array binding signal (z-score),[33],-0.993
same,glycan array binding signal (z-score),[34],0.416
same,glycan array binding signal (z-score),[35],-0.421
same,glycan array binding signal (z-score),[36],-0.539
same,glycan array binding signal (z-score),[37],-1.46
same,glycan array binding signal (z-score),[38],-0.688

# Reformatted as tab-separated lines: part of the list above
binder	measurement	setting	value
B1	glycan array binding signal (z-score)	[34]	0.416
same	glycan array binding signal (z-score)	[35]	-0.421
